PubChem BioAssay AID1508600 (Functional Genomics Laboratory (NCATS/FGL), 2020)
Hit rate of the full screen: of about 53,000 sequences, about 3,700 (7%) were called active.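 How the source made its calls: active means gene knockdowns whose robust z-score for IL-1 alpha signal is at least 2 or at most -2, so actives lie on both sides; inactive means the rest.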 The list shows a part of the results.

Assay: Components of the Cytosolic LPS Sensing Pathway: Gene Identification via Genome-wide siRNA Screen;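 further: robust z of the log signal after scaling to non-targeting control siRNA wells of the plate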
Settings: RAW264.7 macrophages, IL-1a HTRF, actives lie on both sides, screened at 100 nM (by protocol), cells primed 5 h with Pam3CSK4 first
How it was run: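 Knockdown: 100 nM siRNA, 48h, RAW264.7. Stimulation: Pam3CSK4 5 h, then LipidA via TransIT-TKO 24 h. Output: supernatant IL-1a HTRF, negative-control-normalized, log robust z-score; viability by CellTiter-Glo.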
With CCUAUGAAGGUGAAUGCUUTT against Fbxl4 the z-score was inactive: 0.721. With GGACAUUCUCAAAUCUUGATT against Praf2 the z-score was inactive: 0.244. With GCUUGUGGAAGAACCUACUTT against Hoxc13 the z-score was inactive: -0.345. In the case of CCACUUUACAGUGUUGAUATT against Eaf1, the z-score is reported as inactive: 0.568. In the case of GUGGUUUGCAUUUUUCUUUTT against Olfr134, the z-score is reported as inactive: -0.626. In the case of GGAACAUAGUAGCAUGCCATT against P3h3, the z-score is reported as inactive: -1.2. With CGACUAUCAGCAGCUGAAGTT against Igf1r the z-score was active: 5.27. In the case of CGGACAACGUGGCUUUGUCTT against Pstpip1, the z-score is reported as inactive: 0.539. With CCUUACGAGAAAAAAUUAGTT against Spats1 the z-score was inactive: -1.02. With GGACAUAAAAGUGUCUCGATT against Cldn13 the z-score was inactive: 0.16. In the case of CCCACCAAAUAAUUGGAAUTT against Phf20l1, the z-score is reported as inactive: 1.08. In the case of GCUAUAUCUACGACAAGGATT against Crip2, the z-score is reported as inactive: -0.859. With GGACCAUUCGAAAAAUGCCTT against Cd5 the z-score was inactive: 0.769. With GCCUAGUAGAACUCCCAGCTT against Txn2 the z-score was inactive: -1.36. With CCAAAGCUUGCUUUAAAACTT against Timm21 the z-score was inactive: 0.447. For CCAUUAUUUCUACUCUCCCTT against Rpn1, the z-score was inactive: 0.102. In the case of CCACCGAAAUCCUUAUUUUTT against Ppargc1a, the z-score is reported as inactive: 0.522. In the case of GCACUUCCGGAAAAAGCGATT against Mpzl2, the z-score is reported as inactive: 0.495. For GGCUCUGGACCAACUACUATT against Fam124b, the z-score was inactive: -0.286. In the case of GGACAAUCCGAACAUCAAATT against Sval1, the z-score is reported as inactive: -0.403. In the case of GGUGCUGAACUACAUGUACTT against Zbtb14, the z-score is reported as inactive: 1.46. For CGGCAACUUCUUCAACAUATT against Fitm1, the z-score was inactive: 0.0142. In the case of GGUAAAAGACUAAAGAAGATT against Coch, the z-score is reported as inactive: -0.485. For GGUCAUCUACCAACUCAGATT against Ifi202b, the z-score was inactive: -0.296. For GCAAUAGACAUUUAAAGCATT against Pdlim3, the z-score was inactive: 0.142. With CCUAACCACUACCUUAUACTT against H2-DMa the z-score was active: 2.43. With GGAAAAAGCCUAACUAUGATT against Ccnl1 the z-score was inactive: -0.7. For GGAUGUCUCGGAACUAAGGTT against Med28, the z-score was inactive: -0.571. In the case of GCUACAUCGUUCGAGCUAGTT against Cyc1, the z-score is reported as inactive: 0.168. In the case of GGCCAAUGAGAACAGCCUGTT against Ndst1, the z-score is reported as inactive: -1.24. In the case of GGUUUCUUGCCAAGAAAUUTT against Asic5, the z-score is reported as inactive: -0.359. In the case of GGUGAUGUGCUCCGGUUUATT against Mrs2, the z-score is reported as inactive: 0.0701. With GGGAGUUUGAUUCUGACUCTT against Ank3 the z-score was inactive: -0.264. For GCGAAUCUUGGUUAAGCCGTT against Hook1, the z-score was inactive: 0.194. For GCCUUUAUCUACCAUUACUTT against Arfgap2, the z-score was inactive: -1.22. With GGACAAUUCCAGUCAAUAATT against Ccdc115 the z-score was inactive: -1.01. In the case of GCAGAGAUACCUAUCAAAGTT against Angptl4, the z-score is reported as inactive: 1.16. With GGGAGAUGUUACAACUCAGTT against Sod2 the z-score was inactive: 1.89. With GGCUUGAAGCCCUAGUACUTT against Prss30 the z-score was active: 2.46. For GCCUCACAUUGUAGGAAUCTT against Ecsit, the z-score was inactive: -0.27. In the case of GGAAACUGGAUCAAACCAUTT against Smarcd3, the z-score is reported as inactive: -0.707. For GGGCUUGAGAACAACCAGATT against Adamdec1, the z-score was inactive: -0.519. With GCAAGAGCUGAGUACUCUGTT against Ahsp the z-score was inactive: -0.522. For GGCCGCGUGUAAAAAGGUUTT against Haspin, the z-score was inactive: -1.85. With GCUUCUAGCCUGUAUUGCCTT against Rps8 the z-score was inactive: 0.31. For GCUACAUCAAGGAAUUACUTT against Gramd1a, the z-score was inactive: 0.297. In the case of GGUUGGUCUCCUCUUCAUATT against Psmd10, the z-score is reported as inactive: 1.09. For GGAGAAGGAGCUGGAAACGTT against Cttn, the z-score was inactive: 0.645. For “CCAUAUAGAUCAUCUGUUCTT against 4930470P17Rik”, the z-score was inactive: -0.442. With GGGAAAUGUUGAUAAUAAGTT against Morf4l2 the z-score was inactive: -1.87. For CCCUUUACAUUACUCUAGCTT against Olfr715, the z-score was inactive: 0.141. For GCGGUCAAAUGCAACAAACTT against Fabp5, the z-score was inactive: -0.33. In the case of GAAUAUCCGCACACAAAGCTT against Olfr1356, the z-score is reported as inactive: -1.08. In the case of GCCAUUCACGACCCACUACTT against Olfr1095, the z-score is reported as inactive: -0.102.
